Data as given in paper PMC2500221.

Protein sequences, listed by entry. Tags and fused reporters are not part of them. Lines headed by an entry give the natural chain unless they say otherwise; changes in a name come on top.
UniProt Q9W5E1: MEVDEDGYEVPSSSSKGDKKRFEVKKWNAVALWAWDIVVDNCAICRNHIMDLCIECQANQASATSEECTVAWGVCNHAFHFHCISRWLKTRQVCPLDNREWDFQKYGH
UniProt Q7JWH5: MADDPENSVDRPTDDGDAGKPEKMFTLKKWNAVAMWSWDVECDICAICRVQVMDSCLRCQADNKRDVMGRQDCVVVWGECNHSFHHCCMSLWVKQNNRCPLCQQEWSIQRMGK
UniProt Q9V9R2: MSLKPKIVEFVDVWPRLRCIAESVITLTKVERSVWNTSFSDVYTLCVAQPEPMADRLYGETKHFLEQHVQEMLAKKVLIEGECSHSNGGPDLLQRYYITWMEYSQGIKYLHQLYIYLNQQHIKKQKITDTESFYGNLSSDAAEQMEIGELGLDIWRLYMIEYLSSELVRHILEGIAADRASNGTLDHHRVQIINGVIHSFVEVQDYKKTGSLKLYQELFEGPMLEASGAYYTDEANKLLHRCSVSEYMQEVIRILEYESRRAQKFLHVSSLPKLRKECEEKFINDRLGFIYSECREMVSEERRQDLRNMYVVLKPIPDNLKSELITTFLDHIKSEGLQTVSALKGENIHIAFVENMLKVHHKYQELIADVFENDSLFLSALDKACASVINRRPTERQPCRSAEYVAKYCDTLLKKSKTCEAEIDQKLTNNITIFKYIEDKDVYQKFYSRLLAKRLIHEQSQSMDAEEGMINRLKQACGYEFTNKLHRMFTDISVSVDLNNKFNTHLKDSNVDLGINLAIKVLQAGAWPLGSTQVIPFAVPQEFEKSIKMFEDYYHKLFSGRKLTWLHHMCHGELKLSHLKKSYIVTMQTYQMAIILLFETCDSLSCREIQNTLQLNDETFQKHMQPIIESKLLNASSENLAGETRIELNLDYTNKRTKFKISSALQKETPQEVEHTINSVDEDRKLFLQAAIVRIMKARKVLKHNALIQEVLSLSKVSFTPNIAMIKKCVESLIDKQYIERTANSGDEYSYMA
UniProt Q24311: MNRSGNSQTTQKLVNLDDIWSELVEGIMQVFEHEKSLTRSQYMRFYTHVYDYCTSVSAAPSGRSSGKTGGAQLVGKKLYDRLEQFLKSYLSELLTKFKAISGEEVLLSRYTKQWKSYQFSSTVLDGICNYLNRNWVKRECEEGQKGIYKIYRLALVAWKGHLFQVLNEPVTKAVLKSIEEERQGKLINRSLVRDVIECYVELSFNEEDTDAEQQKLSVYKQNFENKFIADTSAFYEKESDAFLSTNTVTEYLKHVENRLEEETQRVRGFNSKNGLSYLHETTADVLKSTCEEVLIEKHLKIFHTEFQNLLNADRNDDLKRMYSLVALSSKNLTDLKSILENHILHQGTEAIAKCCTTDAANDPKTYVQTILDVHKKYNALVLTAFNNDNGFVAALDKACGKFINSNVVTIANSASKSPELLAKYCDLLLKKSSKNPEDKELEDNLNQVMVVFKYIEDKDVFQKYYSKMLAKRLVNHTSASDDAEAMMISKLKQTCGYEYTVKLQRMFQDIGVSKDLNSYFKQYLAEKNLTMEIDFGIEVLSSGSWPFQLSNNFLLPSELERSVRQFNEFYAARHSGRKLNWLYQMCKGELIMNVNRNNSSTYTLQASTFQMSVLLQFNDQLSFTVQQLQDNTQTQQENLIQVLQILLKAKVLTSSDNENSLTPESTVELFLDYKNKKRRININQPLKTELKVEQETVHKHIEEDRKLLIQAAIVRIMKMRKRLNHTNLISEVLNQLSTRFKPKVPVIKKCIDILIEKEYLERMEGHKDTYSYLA

How the values were obtained:
[1] = target: Flag-Roc1a (Drosophila melanogaster) (UniProt Q9W5E1); experiment: co-IP; tagged Roc protein or RING-swap chimera immunoprecipitated (anti-FLAG for the FLAG-Roc proteins) from transgenic embryo extracts (0-16 h; NP-40 lysis buffer: 50 mM Tris pH 8.3, 150 mM NaCl, 0.5% NP-40), overnight at 4°C on protein-A beads; co-precipitating endogenous Cullins detected by immunoblot; Flag-Roc1a also tested in the Roc2^KG mutant background (Fig. 8)
[2] = target: T1, Flag-Roc1b (Drosophila melanogaster) (UniProt Q9NHX0); experiment: as above
T1 sequence: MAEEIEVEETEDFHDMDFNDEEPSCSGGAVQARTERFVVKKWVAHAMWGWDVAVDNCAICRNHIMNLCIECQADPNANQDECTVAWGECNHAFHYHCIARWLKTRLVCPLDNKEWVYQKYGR

[3] = target: Flag-Roc2 (Drosophila melanogaster) (UniProt Q7JWH5); experiment: as above
[4] = target: T2, V5-Roc1b (control Roc1b construct) (Drosophila melanogaster) (UniProt Q9NHX0); experiment: co-IP; V5-tagged Roc or chimera constructs transfected into S2 cells, lysates 48 h later, anti-V5 immunoprecipitation; endogenous Cul1, Cul3, Cul5 detected by immunoblot
T2 sequence: T1 sequence

Substance	binding [1]	binding [2]	binding [3]	binding [4]
Cul2 (from UniProt Q9V9R2)	binds	no binding	no binding	–
Cul3	–	binds	–	binds
Cul5	–	no binding	–	–

More lines, now with the values ahead:

binding [1]	binding [2]	binding [3]	binding [4]	Substance
–	no binding	–	–	Cul4
–	–	no binding	–	Cul1 (from UniProt Q24311 1-774)

Results are given in words; binding and its absence hold for the method and conditions named. Binding seen in cells or lysates may run through a third protein. For some assays here: Binding calls can cover weak binding; strength is not graded here. For some assays here: Where a sequence is shown, tags or fusion partners need not be part of it.
